Source: PubChem BioAssay AID2417 (National Center for Advancing Translational Sciences (NCATS), 2010)
The campaign covered roughly 140,000 compounds. About 4,300 (3.1%) were called active. Inconclusive results, whose numbers are uncertain, are shown with a selection of clear calls.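 The calls were made as follows: active = readout at or below -70, meaning at least 70% loss of cells showing the perinucleolar compartment, a nuclear body marking cancer cells; inconclusive = readout between -30 and a set limit; inactive = the rest.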

test: High Content Assay for Compounds that inhibit the Assembly of the Perinucleolar Compartment; conditions: PC3M PTB-GFP, PNC prevalence imaging, 16 h; at 10 µM; hits give low values;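 also: plate controls were DMSO wells for no effect and camptothecin positive control wells for full effect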
Method in brief: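 Compounds are pinned in duplicate onto adhered PC3M cells stably expressing GFP-tagged PTB and incubated 16 h at 37 C. Cells are then fixed, nuclei stained with Hoechst, and PNC-positive cells counted.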

| SMILES | activity change (PNC), negative = inhibition |
| --- | --- |
| Cc1ccc(C(=O)N/C(=C\c2ccc(-c3ccc([N+](=O)[O-])cc3)o2)C(=O)NC2CCS(=O)(=O)C2)cc1 (centres undefined) | inconclusive: -64.8% |
| CC(C)Cc1nnc(NC(=O)CS(=O)(=O)Cc2ccccc2)s1 | inactive: -17.7% |
| Cc1ccc(S(=O)(=O)N2CCCN(S(=O)(=O)c3ccc4ccccc4c3)CC2)cc1 | active: -100% |
| CC(C)c1ccc(C2CC(=O)N3CN(C)CSC3=C2C#N)cc1 (centres undefined) | inactive: -1.03% |
| O=c1c2c(nc3nc(COc4ccccc4)[nH]n13)CCC2 | active: -110% |
| Cc1c(C(=O)O)oc2c1C(O)CC(C)(C)C2 (centres undefined) | inconclusive: -41.9% |
| OCC1(C2=NOC(O)(C(F)(F)F)C2)CCCCC1 (centres undefined) | inconclusive: -32.8% |
| Cc1c(C(=O)OCCOc2ccccc2)[nH]c2c1C(=O)CCC2 | inactive: -14.1% |
| COc1cccc(-n2nnnc2SCC(=O)N2CCCc3ccccc32)c1 | inconclusive: -32.2% |
| Cc1cccc(-n2c(N)cc(=O)nc2SCC(=O)Nc2ccccc2)c1 | inactive: -14% |
| c1ccc(CC2CCN(c3nc4ccccc4n4nnnc34)CC2)cc1 | inactive: 33.4% |
| O=C(N/N=C/c1cccc([N+](=O)[O-])c1)c1cccs1 | inactive: 2.75% |
| CCOC(=O)N1CCC(Nc2c(Nc3ccc(C)c(C)c3)c(=O)c2=O)CC1 | inconclusive: -37% |
| CC1(C)NC(=O)N(CCCCOc2ccc3c(c2)CCC3)C1=O | inconclusive: -46.3% |
| CC(Sc1ccccc1)C(=O)Nc1ccc(S(=O)(=O)N2CCOCC2)cc1 (centres undefined) | inconclusive: -44.7% |
| COc1ccc(N2C(=O)CC(N3CCC(O)(c4ccc(Cl)cc4)CC3)C2=O)cc1 (centres undefined) | inconclusive: -37.8% |
| CC(=O)c1ccc(N2CCN(S(=O)(=O)c3cccc(S(=O)(=O)N4CCOCC4)c3)CC2)cc1 | inactive: -5.49% |
| O=C(Nc1cccc(-c2nc3ccccc3s2)c1)c1ccc2c(c1)OCO2 | inconclusive: -30.3% |
| COc1ccc(-c2nn(CCC(=O)O)cc2/C=C2\SC(N)=NC2=O)cc1 | inactive: 34.6% |
| O=C(CN1CCN(c2ccc(F)cc2)CC1)OCc1ccccc1 | inconclusive: -33% |
| O=C(O)CCC(=O)N1CCN(c2nc3ccccc3s2)CC1 | inconclusive: -35.3% |
| NC(=O)C1CCN(C(=O)CSc2nc3ccccc3o2)CC1 | active: -128% |
| Cc1cccc(-c2nnn(Cc3nnc(NC(=O)c4ccccc4)s3)n2)c1 | inconclusive: -41.2% |

As a working copy, part of the list above.

| SMILES | activity change (PNC), negative = inhibition |
| --- | --- |
| Cc1ccc(C(=O)N/C(=C\c2ccc(-c3ccc([N+](=O)[O-])cc3)o2)C(=O)NC2CCS(=O)(=O)C2)cc1 (centres undefined) | inconclusive: -64.8% |
| CC(C)Cc1nnc(NC(=O)CS(=O)(=O)Cc2ccccc2)s1 | inactive: -17.7% |
| Cc1ccc(S(=O)(=O)N2CCCN(S(=O)(=O)c3ccc4ccccc4c3)CC2)cc1 | active: -100% |
| CC(C)c1ccc(C2CC(=O)N3CN(C)CSC3=C2C#N)cc1 (centres undefined) | inactive: -1.03% |
| O=c1c2c(nc3nc(COc4ccccc4)[nH]n13)CCC2 | active: -110% |

(more compounds)

| SMILES | activity change (PNC), negative = inhibition |
| --- | --- |
| CC(=O)c1c(C)[nH]c(C(=O)OCC(=O)Nc2cc(Cl)ccc2[N+](=O)[O-])c1C | inactive: 1.47% |
| CN(C(=O)c1cc2sccc2n1C)C1CCCCC1 | inactive: 20.6% |
| CCCC1S/C(=N/N=C/c2cccs2)NC1=O (centres undefined) | inconclusive: -56.2% |
| COc1ccc(Br)cc1-c1noc(-c2ccncc2)n1 | inconclusive: -42.7% |
| CC(C)Cc1nc(SCC(=O)NCc2ccccc2)n[nH]1 | inconclusive: -47.8% |
| CCN(CC)c1ccc(NC(=O)CSc2nc3ccccc3c(=O)n2-c2cc(S(=O)(=O)N(C)C)ccc2C)cc1 | inactive: -28.3% |
| CN(c1ccccc1)S(=O)(=O)c1ccc(NC(=O)c2ccccc2)cc1 | inactive: -8.42% |
| Cc1ccc(-n2c(SCC(=O)N3CC(=O)Nc4ccccc43)nc3ccccc3c2=O)cc1 | inconclusive: -38.1% |
| O=C(Cc1cccs1)N(Cc1ccco1)C1(C(=O)NC2CCCCC2)CCCCC1 | inconclusive: -46% |
| CS(=O)(=O)N(Cc1ccccc1)c1ccc(C(=O)NCC2CCCO2)cc1 (centres undefined) | inactive: 24.8% |
| COc1ccc(C)cc1S(=O)(=O)N(CC(=O)Nc1ccc2c(c1)OCCO2)Cc1ccccc1 | inconclusive: -34.5% |
| CCOc1ccccc1NC(=O)C1CCCN(S(=O)(=O)c2ccc(OC)c(C)c2)C1 (centres undefined) | inconclusive: -38.8% |
| Cc1ccc(NC(=O)Cn2nc(C)c3ccccc3c2=O)cc1F | inconclusive: -41.4% |
| CC(Oc1ccc(-c2ccccc2)c(F)c1)c1ccn(S(=O)(=O)c2ccc(Br)cc2)n1 (centres undefined) | inconclusive: -49.9% |
| O=C(CN(C(=O)c1cc2c(s1)CCC2)C1CCCC1)NCc1cccs1 | inactive: -26.5% |
| OCCN1CCOCCN(CCO)CCOCC1 | inactive: -12.6% |
| CCC(=O)Oc1c(C(=O)CC)cc2c(C)cc(=O)oc2c1C | inconclusive: -47.6% |
| COc1cccc(N=Nc2c(=O)[nH]n3c(=O)cc(C)[nH]c23)c1 | inactive: -7.49% |
| O=C(O)/C=C\C(=O)Nc1ccccc1C(=O)NCc1ccccc1 | inconclusive: -44.2% |
| CC(C)Oc1ccc(CCc2n[nH]c(=S)n2Cc2ccccc2)cc1 | inconclusive: -42.8% |
| O=C1C2C(C(=O)N1c1ccc3c(c1)OCO3)C1C=CC2C12CC2 (centres undefined) | inconclusive: -39.3% |
| COc1ccc(-n2nnnc2SCC(N)=O)cc1 | inconclusive: -52.8% |
| CCSc1nnc(NC(=O)c2cc(C)oc2C)s1 | inconclusive: -34.8% |

| SMILES | activity change (PNC), negative = inhibition |
| --- | --- |
| COc1ccc(N2C(=O)CS/C2=C\[N+](=O)[O-])cc1 | inconclusive: -39.9% |
| Cc1ccc(N2C(=O)c3cccc4c(N5CCN(C)CC5)ccc(c34)C2=O)c2cccnc12 | active: -82.6% |
| NC(=S)N=Nc1c(O)n(Cc2ccccc2)c2ccccc12 | active: -100% |
| CCCCCn1c(SCCN2CCOCC2)nc2c1c(=O)[nH]c(=O)n2C | inconclusive: -36.2% |
| Cc1nc(NC(=O)/C=C/c2ccco2)sc1C | inconclusive: -55.6% |
| CN(C)CCn1c(=S)[nH]c2ccccc2c1=O | inconclusive: -38.5% |
| O=C(CN1CCCC1)Nc1nnc(-c2cccs2)s1 | inconclusive: -55.8% |
| CCN(C(=O)CCN1C(=O)c2ccccc2C1=O)C1CCCCC1 | inactive: 19.2% |
| COc1ccc(S(=O)(=O)Nc2ccccc2-c2nnn(CC(=O)Nc3ccccc3OC)n2)cc1 | inconclusive: -30% |
| CN(C)S(=O)(=O)c1cccc(C(=O)Nc2ccccc2[N+](=O)[O-])c1 | inactive: -7.4% |
| CCOCCCNC(=O)c1c(C)c(C(=O)OCC)n(C)c1C | inconclusive: -48.6% |
| COc1cc(N=c2ssnc2Cl)c(OC)cc1Cl | inactive: 10.4% |
| Cc1ccccc1Nc1nc(N)nc(COC(=O)c2cccc(S(=O)(=O)N(C)c3ccccc3)c2)n1 | inconclusive: -49% |
| CC(=O)N(C(C)=O)S(=O)(=O)c1ccc(N=NN2CCCCC2)cc1 | inactive: 186% |
| O=C(NCN1C(=O)C2C3C=CC(C3)C2C1=O)Nc1nncs1 (centres undefined) | inconclusive: -41.8% |
| CCC(C)NCCOCCOc1ccc(F)cc1 (centres undefined) | inconclusive: -50.2% |
| O=C(Nc1cc(F)cc(F)c1)c1ccc(NCCc2ccccc2)c([N+](=O)[O-])c1 | inactive: 17.4% |
| CCOc1ccc(NC(=O)Cn2nnc(C(=O)NCCc3ccc(OC)c(OC)c3)c2N)cc1 | inconclusive: -39% |
| O=C(CCCN1C(=O)c2ccccc2C1=O)Nc1ccc(S(=O)(=O)N2CCOCC2)cc1 | inconclusive: -32.3% |
| CCCCNC(=O)CSc1nc2ccc(N3CCOCC3)cc2c(=O)n1CCc1ccccc1 | inconclusive: -53.3% |
| O=c1oc2ccc(Cl)cc2cc1-c1ccccc1 | inconclusive: -69.3% |
| CC(=O)N(C(C)=O)c1cccc2c(N(C(C)=O)C(C)=O)cccc12 | inconclusive: -46.9% |
| COc1ccccc1/C=C/C=N/N1CCN(Cc2cccc3ccccc23)CC1 | inactive: -19.1% |

| SMILES | activity change (PNC), negative = inhibition |
| --- | --- |
| CC1(C)CC(=O)C(N=Nc2ccc(S(=O)(=O)N3CCCCCC3)cc2)=C(O)C1 | inactive: 24.1% |
| COc1ccc(C(=O)NCc2nnc(SCC(=O)Nc3nc4ccc(C)cc4s3)o2)cc1OC | inconclusive: -62.6% |
| COC(=O)c1sc(N)c(C(=O)OC)c1COC(=O)C1CC(=O)N(Cc2ccco2)C1 (centres undefined) | inactive: 24.2% |
| CC1(C(=O)O)Cc2ccccc2C(=O)O1 (centres undefined) | active: -101% |
| Cc1occc1C(=O)NN=C1C2CC3CC(C2)CC1C3 | active: -100% |
| O=C(Nc1nnc(CSCc2ccc(F)cc2)s1)c1ccc([N+](=O)[O-])cc1 | active: -96.1% |
| O=C(O)/C=C/C(=O)NNC(=O)c1ccccc1Br | inactive: 34.1% |
| Cc1ccc(S(=O)(=O)N(C)C)cc1NC(=O)/C=C/c1cccs1 | active: -119% |
| CCOC(=O)C1CCN(C(=O)c2ccccc2N(C)S(=O)(=O)c2ccccc2)CC1 | inconclusive: -79.4% |
| Cc1nn(Cc2ccccc2Cl)c(C)c1C(=O)NCCN1C(=O)S/C(=C\c2ccccc2)C1=O | inactive: -21.8% |
| Cc1ccc2c(C)nc(NC3=NCN(CCc4ccccc4)CN3)nc2c1 | inconclusive: -37.4% |
| Cc1c(Nc2c3c(c(C#N)c4nc5ccccc5n24)CCC3)c(=O)n(-c2ccccc2)n1C | inconclusive: -34.6% |
| CC(C)(C)c1cc(C(c2cccnc2)N2CCN(CCO)CC2)cc(C(C)(C)C)c1O (centres undefined) | inactive: 3.44% |
| N#CC1=C(N)NC(SCC(=O)Nc2ccccc2)=C(C#N)C12CCCC2 | inactive: -7.11% |
| CCOC(=O)C1=C(C)Nc2nc3ccccc3n2C1c1cccs1 (centres undefined) | inconclusive: -57.2% |
| O=C(Nc1ccc(-n2nncc2-c2ccco2)cc1)c1ccc(F)cc1 | inactive: 14.9% |
| Cc1ccc(C(=O)NNC(=O)CCCN2C(=O)/C(=C/c3ccccc3Cl)SC2=S)cc1 | inconclusive: -67.3% |
| Cn1c(SCc2nc3ccccc3s2)nnc1-c1cccs1 | inconclusive: -37.2% |
| c1ccc2c(c1)CCCN2Cc1nnnn1CC1CCCO1 (centres undefined) | inconclusive: -32.4% |
| O=C(NC1CCCCC1)C(c1ccc(F)cc1)N(Cc1ccc2c(c1)OCO2)C(=O)c1cnsn1 (centres undefined) | inconclusive: -44.1% |
